Measurements reported in PubChem BioAssay AID743454 (Peter MacCallum Cancer Centre, 2014)

- Aim: 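Knock-downs lowering viability or raising caspase 3/7 activity in vorinostat-treated resistant cells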 (primary screen)
- Cells: human HCT116-VR colon cancer cells, selected for vorinostat resistance
- Knock-down reagent: siRNA pool against human genes, 40 nM siRNA pool
- Timing: vorinostat for 24 h, read-out about 72 h after transfection
- Challenge: vorinostat at 2.5 µM final
- Detection: 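Cell viability by CellTiter-Fluor and caspase 3/7 activity by luminescence, each scaled to mock wells per plate, duplicates averaged, then robust z-scored over all plates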
- Reading the numbers: viability robust z-score: higher = more viable cells than screen typical; caspase robust z-score: higher = more caspase 3/7 activity than screen typical
- Active means: 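a knock-down is a hit when classed RV1 or RV2 for lowered viability, or CA1 or CA2 for caspase activation; those lethal without drug were dropped; hits were retested singly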
This is one part, drawn at random, of about 18,000 deposited reagents. Over the whole deposit, 450 (2.5%) are marked active. 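Single biological run; no consistent viability z cut-off exists, so the class columns, not z-scores, define the calls.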 Reagents against one gene are numbered here. No sequences are given here.

no.	gene	reagent	viability hit class	caspase hit class	viability robust z-score	caspase robust z-score	outcome
1	NADSYN1	1	no change	no change	0.5	0.81	inactive
2	HTR1E	1	no change	no change	-0.36	3.86	inactive
3	SEC14L1	1	no change	no change	0.44	-0.35	inactive
4	TARS2	1	no change	no change	0.74	0.72	inactive
5	SLC25A21	1	no change	no change	0.34	-0.01	inactive
6	CPQ	1	no change	no change	-2.04	4.06	inactive
7	CDC42SE2	1	no change	no change	-0.21	0.08	inactive
8	GPR19	1	no change	no change	-1.25	-1.23	inactive
9	STK17A	1	no change	no change	-0.26	1.39	inactive
10	LRRD1	1	no change	no change	2.15	-0.06	inactive
11	TLR1	1	no change	no change	0.73	-0.01	inactive
12	PGD	1	no change	no change	-0.62	-0.7	inactive
13	ITGB5	1	no change	no change	0.38	-0.39	inactive
14	LONP1	1	no change	no change	0.81	-0.47	inactive
15	TGIF2LX	1	no change	no change	1.12	0.8	inactive
16	ELOVL5	1	no change	no change	0.28	-0.12	inactive
17	CARM1	1	no change	no change	-0.89	4.13	inactive
18	NRL	1	no change	no change	-0.82	4.23	inactive
19	CBY1	1	no change	no change	1.96	0.4	inactive
20	CHST11	1	no change	no change	-1.92	1.77	inactive
21	TENM2	1	no change	no change	-0.42	0.48	inactive
22	H2AC17	1	no change	no change	0.48	0.29	inactive
23	EFCAB11	1	no change	no change	-0.57	1.11	inactive
24	ZNF271P	1	no change	no change	0.2	0.74	inactive
25	RBMX2	1	no change	no change	-0.61	0.62	inactive
26	TYMP	1	no change	no change	0.34	0.62	inactive
27	ZNF660	1	no change	no change	1.28	-0.47	inactive
28	PLSCR3	1	no change	no change	0.09	1.07	inactive
29	MCF2L2	1	no change	no change	0.02	-0.98	inactive
30	EGFL8	1	no change	no change	0.84	-0.59	inactive
31	ARHGAP35	1	no change	no change	0.47	-0.52	inactive
32	ARF6	1	no change	no change	0.06	0.21	inactive
33	MFGE8	1	no change	no change	-0.99	0.12	inactive

Copied from the list:
For “viability robust z-score”, ARF6 shows 0.06
TARS2, caspase hit class → no change
MCF2L2, viability robust z-score → 0.02
TYMP, caspase hit class = no change
For “caspase robust z-score”, ZNF660 reads -0.47

The results go on:
no.	gene	reagent	viability hit class	caspase hit class	viability robust z-score	caspase robust z-score	outcome
34	RBFOX3	1	no change	no change	0.6	0.6	inactive
35	RBFOX3	2	no change	no change	-0.06	-0.76	inactive
36	STIM1	1	no change	no change	0.84	-0.52	inactive
37	ELK4	1	no change	no change	-0.81	-0.16	inactive
38	H2AC18	1	no change	no change	1.19	-0.67	inactive
39	IER5	1	no change	no change	-0.76	0.48	inactive
40	PRCD	1	no change	no change	2.27	-0.98	inactive
41	CD72	1	no change	no change	1.27	-0.34	inactive
42	POLE2	1	no change	no change	0.88	-0.83	inactive
43	U2AF1L4	1	no change	no change	0.08	-0.42	inactive
44	OR2T12	1	no change	no change	-1.19	3.44	inactive
45	TMEM31	1	no change	no change	0.24	-1.18	inactive
46	CD2AP	1	no change	no change	0.64	-0.34	inactive
47	SGK1	1	no change	no change	0.98	0.3	inactive
48	ITFG2	1	no change	no change	-0.84	-0.61	inactive
49	CFAP126	1	no change	no change	0.82	1.14	inactive
50	GPAT2	1	no change	no change	1.38	1.08	inactive
51	SULT2A1	1	no change	no change	1.52	-0.57	inactive
52	CLCA3P	1	no change	no change	-0.04	-0.77	inactive
53	SNF8	1	no change	no change	0.66	-0.25	inactive
54	SUPT16H	1	no change	no change	0.92	-0.45	inactive
55	HCFC1R1	1	no change	no change	-0.47	-1.3	inactive
56	EMC6	1	no change	no change	-0.66	-0.85	inactive
57	MRPL40	1	no change	no change	1.48	0.36	inactive
